From publication PMC11589570, “Critical assessment of LC3/GABARAP ligands used for degrader development and ligandability of LC3/GABARAP binding pockets” (Nature Communications, 2024)
Read-outs that look alike come from different tables or passages of the source. The source gives many values for each of these; only a part stands here.

Sequences of proteins named here, by UniProt entry; tags and fusion partners are left off.
UniProt P60520, whole entry: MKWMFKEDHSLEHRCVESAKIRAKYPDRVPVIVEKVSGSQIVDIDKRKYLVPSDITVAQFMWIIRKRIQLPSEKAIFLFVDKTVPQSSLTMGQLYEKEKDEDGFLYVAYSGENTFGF

Assays:
LC3B = LC3B (Homo sapiens, UniProt Q9GZQ8); conditions: LC3B:ligand molar ratio 1:2
GABARAPL2 = GABARAPL2 (Homo sapiens, UniProt P60520); conditions: GABARAPL2:ligand molar ratio 1:2

Row | SMILES | CSP (LC3B; LC3B residue E04, estimated) [ppm] | CSP (LC3B; LC3B residue F79) [ppm] | CSP (LC3B; LC3B residue F80) [ppm] | CSP (LC3B; LC3B residue G85) [ppm] | CSP (LC3B; LC3B residue H86) [ppm] | CSP (LC3B; LC3B residue I95) [ppm] | CSP (LC3B; LC3B residue K05) [ppm] | CSP (LC3B; LC3B residue L81) [ppm] | CSP (LC3B; LC3B residue L82) [ppm] | CSP (LC3B; LC3B residue M88) [ppm] | CSP (LC3B; LC3B residue N84) [ppm] | CSP (LC3B; LC3B residue P94, estimated) [ppm] | CSP (LC3B; LC3B residue S87) [ppm] | CSP (LC3B; LC3B residue S90) [ppm] | CSP (LC3B; LC3B residue S92) [ppm] | CSP (LC3B; LC3B residue T93) [ppm] | CSP (LC3B; LC3B residue V83) [ppm] | CSP (LC3B; LC3B residue V89) [ppm] | CSP (LC3B; LC3B residue V91, estimated) [ppm] | CSP (GABARAPL2; residue F5, estimated) [ppm] | other results
1 | O=C1Nc2ccc(I)cc2C1=Cc1cc(Br)c(O)c(Br)c1 [compound 4] | 0.002 | 0.00224 | 0.003 | 0.030 | 0.023 | 0.029 | 0.00122 | 0.024 | 0.028 | 0.00472 | 0.016 | 0.032 | 0.067 | 0.034 | 0.069 | 0.037 | 0.060 | 0.029 | 0.045 | 0.010 | CSP (GABARAPL2; residue G92): 0.015 ppm; CSP (GABARAPL2; residue K82, estimated): 0.020 ppm; CSP (GABARAPL2; residue L89): 0.010 ppm; CSP (GABARAPL2; residue L94): 0.023 ppm; CSP (GABARAPL2; residue M4, estimated): 0.010 ppm; CSP (GABARAPL2; residue M91): 0.019 ppm; CSP (GABARAPL2; residue P85, estimated): 0.010 ppm; CSP (GABARAPL2; residue Q86): 0.00472 ppm; CSP (GABARAPL2; residue Q93): 0.019 ppm; CSP (GABARAPL2; residue S87): 0.000707 ppm; CSP (GABARAPL2; residue S88): 0.008 ppm; CSP (GABARAPL2; residue T83): 0.023 ppm; CSP (GABARAPL2; residue T90): 0.010 ppm; CSP (GABARAPL2; residue V84): 0.00428 ppm; CSP (GABARAPL2; residue Y95): 0.004 ppm
2 | Cc1ccc(C(=O)N(CCCN)[C@@H](c2nc3cc(Cl)ccc3c(=O)n2Cc2ccccc2)C(C)C)cc1 [compound 3, (R)-N-(3-aminopropyl)-N-(1-(3-benzyl-7-chloro-4-oxo-3,4-dihydroquinazolin-2-yl)−2-methylpropyl)−4-methylbenzamide] | 0.002 | 0.000141 | 0.00142 | 0.00447 | 0.007 | 0.00264 | 0.0024 | 0.00474 | 0.005 | 0.000825 | 0.00333 | 0.005 | 0.00649 | 0.005 | 0.010 | 0.006 | 0.00329 | 0.005 | 0.005 | 0.006 | CSP (GABARAPL2; residue G92): 0.00146 ppm; CSP (GABARAPL2; residue K82, estimated): 0.002 ppm; CSP (GABARAPL2; residue L89): 0.00141 ppm; CSP (GABARAPL2; residue L94): 0.003 ppm; CSP (GABARAPL2; residue M4, estimated): 0.006 ppm; CSP (GABARAPL2; residue M91): 0.001 ppm; CSP (GABARAPL2; residue P85, estimated): 0.002 ppm; CSP (GABARAPL2; residue Q86): 0.000283 ppm; CSP (GABARAPL2; residue Q93): 0.00214 ppm; CSP (GABARAPL2; residue S87): 0.0011 ppm; CSP (GABARAPL2; residue S88): 0.000283 ppm; CSP (GABARAPL2; residue T83): 0.00142 ppm; CSP (GABARAPL2; residue T90): 0.000566 ppm; CSP (GABARAPL2; residue V84): 0.00142 ppm; CSP (GABARAPL2; residue Y95): 0.000721 ppm
